Results as given in PubChem BioAssay (NCATS).
This list was built around the results that the source calls inconclusive (neither active nor inactive); the mix of calls is not that of the screen. A potency beside an inconclusive call is a rough fit, not a confirmed value. Calls of active or inactive are those of the source. Unless noted, the call rests on the fitted dose curve; in most records, active means well fitted cell-killing curve with a large enough effect; inconclusive means small, poorly fitted or top-dose-only effect, or effect the other way; inactive means no such curve, though single readings can be large or run the other way.

Assays:
[1] = Quantitative High-Throughput drug screen in 47 multiple myeloma cell lines against the NCATS MIPE library collection: XG6_PLB cell viability assay (AID 1919865); details: XG6 myeloma viability, CellTiter-Glo ATP luminescence, 48 h; viability (% of control): at 45.8 µM (top of the series); further: nearly all actives have a fitted effect of over 40% in size
In short: (§1)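 Viability after 48 h drug exposure was measured as ATP-dependent luminescence. Cells, 500 per well, sat at 37 °C under 5% CO2; DMSO wells set 100%, media-only wells 0%.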

[2] = Quantitative High-Throughput drug screen in 47 multiple myeloma cell lines against the NCATS MIPE library collection: XG1_PLB cell viability assay (AID 1919866); details: CellTiter-Glo ATP, 48 h; viability: at 45.8 µM (top of the series); further: nearly all actives have a fitted effect of over 35% in size
In short: as §1

[3] = Quantitative High-Throughput drug screen in 47 multiple myeloma cell lines against the NCATS MIPE library collection: UTMC2_PLB cell viability assay (AID 1919868); details: CellTiter-Glo ATP luminescence, 48 h; viability (% of DMSO control): at 45.8 µM (top of the series); further: nearly all actives have a fitted effect of over 55% in size
In short: as §1

[4] = Quantitative High-Throughput drug screen in 47 multiple myeloma cell lines against the NCATS MIPE library collection: PCM6_Riken cell viability assay (AID 1919870); details: CellTiter-Glo ATP, 48 h; viability (% of control): at 45.8 µM (top of the series); further: nearly all actives have a fitted effect of over 30% in size
In short: as §1

[5] = Quantitative High-Throughput drug screen in 47 multiple myeloma cell lines against the NCATS MIPE library collection: KMS28BM_JCRB cell viability assay (AID 1919874); further: nearly all actives have a fitted effect of over 35% in size
In short: as §1

[6] = qHTS for identification of novel therapeutic agents for treatment of microphthalmiaassociated transcription factor (MiT) renal cell carcinoma (RCC) (AID 1963991; calls by dose curve); details: TFE3-RCC UOK109 viability, CellTiter-Glo, 48 h; active = Z-AUC below -0.8 in all three lines
In short: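 Three TFE3-fusion RCC lines (UOK109, UOK124, UOK145), 500 cells/well in complete medium, were treated with MIPE 4.0 compounds for 48 hours at 37 C. Viability was by CellTiter-Glo luminescence, normalized to DMSO (100%) and empty wells (0%); curves fitted over 11 concentrations.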

[7] = Quantitative High-Throughput drug screen in 47 multiple myeloma cell lines against the NCATS MIPE library collection: PE2_PLB cell viability assay (AID 1919869); details: PE2_PLB myeloma cells viability, ATP luminescence, 48 h; viability (% of control): at 45.8 µM (top of the series); further: nearly all actives have a fitted effect of over 35% in size
In short: as §1

[8] = Quantitative High-Throughput drug screen in 47 multiple myeloma cell lines against the NCATS MIPE library collection: RPMI8226_ATCC cell viability assay (AID 1919871); further: nearly all actives have a fitted effect of over 30% in size
In short: as §1

[9] = Quantitative High-Throughput drug screen in 47 multiple myeloma cell lines against the NCATS MIPE library collection: KMS11_JCRBsus cell viability assay (AID 1919873); details: KMS11 myeloma viability, CellTiter-Glo ATP luminescence, 48 h; viability (% of control): at 45.8 µM (top of the series); further: nearly all actives have a fitted effect of over 50% in size
In short: as §1

[10] = Quantitative High-Throughput drug screen in 47 multiple myeloma cell lines against the NCATS MIPE library collection: OPM2_DSMZ cell viability assay (AID 1919872); further: nearly all actives have a fitted effect of over 30% in size
In short: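 Inhibition of cell viability is measured here. Each line was plated at 500 cells per well, treated with MIPE 4.0 drugs, kept 48 hours at 37C, then assayed for ATP content by CellTiter-Glo luminescence.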

[11] = Quantitative High-Throughput drug screen in 47 multiple myeloma cell lines against the NCATS MIPE library collection: VP6_DJ cell viability assay (AID 1919867); details: ATP luminescence, 48 h; viability (% of DMSO): at 45.8 µM (top of the series); further: nearly all actives have a fitted effect of over 40% in size
In short: as §1
Potency means the concentration at half of the fitted maximal effect.

SMILES	Potency [1]	Potency [2]	Potency [3]	Potency [4]	Potency [5]	Potency [6]	Potency [7]	Potency [8]	Potency [9]	Potency [10]	viability [2]	viability (% of DMSO control) [3]	Potency [11]
C[C@H](NC(=O)c1sccc1OCc1ccc(Cl)cc1)c1ccccc1	inconclusive: 20.9 µM [cytotoxic, partial curve]	inconclusive: 18.7 µM [cytotoxic, partial curve, poor fit]	inconclusive: 0.0209 µM [rising, full curve, poor fit]	inconclusive: 18.7 µM [cytotoxic, partial curve, poor fit]	inconclusive: 0.235 µM [cytotoxic, full curve, poor fit]	inconclusive: 14.8 µM [falling, partial curve]	–	–	–	–	–	–	–
CN1CC(=O)N2C(Cc3c([nH]c4ccccc34)[C@H]2c2ccc3c(c2)OCO3)C1=O (some centres not stated)	inconclusive: 5.26 µM [cytotoxic, full curve, poor fit]	inactive	inconclusive: 0.0118 µM [cytotoxic, full curve, poor fit]	inconclusive: 20.9 µM [cytotoxic, partial curve, poor fit]	–	inconclusive: 9.35 µM	inactive	inconclusive: 23.5 µM [cytotoxic, single point]	inactive	–	–	–	–
C[C@H](NC(=O)C(=O)Nc1ccccc1C(C)(C)C)C(=O)N[C@@H](CC(=O)O)C(=O)COc1c(F)c(F)cc(F)c1F	inconclusive: 18.7 µM [cytotoxic, partial curve, poor fit]	inactive	inconclusive: 0.0264 µM [rising, full curve, poor fit]	–	inactive	inconclusive: 11.8 µM [falling, full curve]	–	–	inconclusive: 4.18 µM [cytotoxic, full curve]	inconclusive: 29.6 µM [cytotoxic, single point]	–	–	–
C=C(c1ccc(C(=O)O)cc1)c1cc2c(cc1C)C(C)(C)CCC2(C)C	inactive	inconclusive: 37.2 µM [cytotoxic, single point]	inconclusive: 8.33 µM [rising, partial curve, poor fit]	–	–	–	inconclusive: 33.2 µM [cytotoxic, single point]	inactive	inactive	–	–	–	–
O=c1c(-c2ccc(O)cc2)coc2cc(O)cc(O)c12	inconclusive: 6.62 µM [cytotoxic, full curve, poor fit]	inconclusive: 3.72 µM [cytotoxic, partial curve, poor fit]	inconclusive: 18.7 µM [cytotoxic, partial curve, poor fit]	–	inactive	inconclusive: 0.235 µM	inactive	active: 20.9 µM	inconclusive: 37.2 µM [cytotoxic, single point]	–	–	–	–
N[C@@H](Cc1c[nH]c2ccc(O)cc12)C(=O)O	inconclusive: 23.5 µM [cytotoxic, single point]	inactive	inconclusive: 0.0012 µM [rising, full curve, poor fit]	inconclusive: 33.2 µM [cytotoxic, single point]	–	–	inconclusive: 0.0526 µM [cytotoxic, partial curve, poor fit]	active: 1.05 µM	inactive	–	–	–	–
CCCCc1ccc2nc(NC(=O)OC)[nH]c2c1	inconclusive: 0.0023 µM [cytotoxic, full curve]	–	–	–	inconclusive: 0.0037 µM [cytotoxic, full curve]	active: 0.0166 µM	–	–	–	–	inconclusive: 38.3% [cytotoxic]	inconclusive: 10.4% [cytotoxic]	–
N#Cc1ccc(NC(=O)Nc2ccccc2Br)c2n[nH]nc12	active: 5.26 µM	inconclusive: 16.6 µM [cytotoxic, partial curve]	inconclusive: 18.7 µM [cytotoxic, partial curve, poor fit]	–	inconclusive: 0.0026 µM [rising, full curve, poor fit]	inconclusive: 18.7 µM [falling, partial curve]	inconclusive: 20.9 µM [cytotoxic, partial curve]	inconclusive: 0.0833 µM [rising, full curve, poor fit]	inconclusive: 33.2 µM [cytotoxic, single point]	–	–	–	–
COc1cccc(-c2ccc(NC(=O)C3=C(C(=O)O)CCC3)c(F)c2)c1	inconclusive: 4.18 µM [cytotoxic, full curve, poor fit]	–	inconclusive: 5.9 µM [cytotoxic, full curve, poor fit]	–	active: 18.7 µM	inconclusive: 18.7 µM [falling, partial curve]	inconclusive: 10.5 µM [cytotoxic, partial curve]	–	–	inconclusive: 23.5 µM [cytotoxic, single point]	–	–	inconclusive: 11.8 µM [cytotoxic, full curve, poor fit]

Given comma-delimited: entries from further up.
SMILES,Potency [1],Potency [2],Potency [3],Potency [4],Potency [5],Potency [6],Potency [7],Potency [8],Potency [9],Potency [10],viability [2],viability (% of DMSO control) [3],Potency [11]
N[C@@H](Cc1c[nH]c2ccc(O)cc12)C(=O)O,"inconclusive: 23.5 µM [cytotoxic, single point]",inactive,"inconclusive: 0.0012 µM [rising, full curve, poor fit]","inconclusive: 33.2 µM [cytotoxic, single point]",–,–,"inconclusive: 0.0526 µM [cytotoxic, partial curve, poor fit]",active: 1.05 µM,inactive,–,–,–,–
CCCCc1ccc2nc(NC(=O)OC)[nH]c2c1,"inconclusive: 0.0023 µM [cytotoxic, full curve]",–,–,–,"inconclusive: 0.0037 µM [cytotoxic, full curve]",active: 0.0166 µM,–,–,–,–,inconclusive: 38.3% [cytotoxic],inconclusive: 10.4% [cytotoxic],–
